Reference: PMC8022279
These are yes or no findings as the source states them, for the method shown. Some results given as binding are weak or reduced against the parent protein; the word gives no strength.

The chains behind the UniProt entries cited, without tags or fusion partners.
UniProt P33334: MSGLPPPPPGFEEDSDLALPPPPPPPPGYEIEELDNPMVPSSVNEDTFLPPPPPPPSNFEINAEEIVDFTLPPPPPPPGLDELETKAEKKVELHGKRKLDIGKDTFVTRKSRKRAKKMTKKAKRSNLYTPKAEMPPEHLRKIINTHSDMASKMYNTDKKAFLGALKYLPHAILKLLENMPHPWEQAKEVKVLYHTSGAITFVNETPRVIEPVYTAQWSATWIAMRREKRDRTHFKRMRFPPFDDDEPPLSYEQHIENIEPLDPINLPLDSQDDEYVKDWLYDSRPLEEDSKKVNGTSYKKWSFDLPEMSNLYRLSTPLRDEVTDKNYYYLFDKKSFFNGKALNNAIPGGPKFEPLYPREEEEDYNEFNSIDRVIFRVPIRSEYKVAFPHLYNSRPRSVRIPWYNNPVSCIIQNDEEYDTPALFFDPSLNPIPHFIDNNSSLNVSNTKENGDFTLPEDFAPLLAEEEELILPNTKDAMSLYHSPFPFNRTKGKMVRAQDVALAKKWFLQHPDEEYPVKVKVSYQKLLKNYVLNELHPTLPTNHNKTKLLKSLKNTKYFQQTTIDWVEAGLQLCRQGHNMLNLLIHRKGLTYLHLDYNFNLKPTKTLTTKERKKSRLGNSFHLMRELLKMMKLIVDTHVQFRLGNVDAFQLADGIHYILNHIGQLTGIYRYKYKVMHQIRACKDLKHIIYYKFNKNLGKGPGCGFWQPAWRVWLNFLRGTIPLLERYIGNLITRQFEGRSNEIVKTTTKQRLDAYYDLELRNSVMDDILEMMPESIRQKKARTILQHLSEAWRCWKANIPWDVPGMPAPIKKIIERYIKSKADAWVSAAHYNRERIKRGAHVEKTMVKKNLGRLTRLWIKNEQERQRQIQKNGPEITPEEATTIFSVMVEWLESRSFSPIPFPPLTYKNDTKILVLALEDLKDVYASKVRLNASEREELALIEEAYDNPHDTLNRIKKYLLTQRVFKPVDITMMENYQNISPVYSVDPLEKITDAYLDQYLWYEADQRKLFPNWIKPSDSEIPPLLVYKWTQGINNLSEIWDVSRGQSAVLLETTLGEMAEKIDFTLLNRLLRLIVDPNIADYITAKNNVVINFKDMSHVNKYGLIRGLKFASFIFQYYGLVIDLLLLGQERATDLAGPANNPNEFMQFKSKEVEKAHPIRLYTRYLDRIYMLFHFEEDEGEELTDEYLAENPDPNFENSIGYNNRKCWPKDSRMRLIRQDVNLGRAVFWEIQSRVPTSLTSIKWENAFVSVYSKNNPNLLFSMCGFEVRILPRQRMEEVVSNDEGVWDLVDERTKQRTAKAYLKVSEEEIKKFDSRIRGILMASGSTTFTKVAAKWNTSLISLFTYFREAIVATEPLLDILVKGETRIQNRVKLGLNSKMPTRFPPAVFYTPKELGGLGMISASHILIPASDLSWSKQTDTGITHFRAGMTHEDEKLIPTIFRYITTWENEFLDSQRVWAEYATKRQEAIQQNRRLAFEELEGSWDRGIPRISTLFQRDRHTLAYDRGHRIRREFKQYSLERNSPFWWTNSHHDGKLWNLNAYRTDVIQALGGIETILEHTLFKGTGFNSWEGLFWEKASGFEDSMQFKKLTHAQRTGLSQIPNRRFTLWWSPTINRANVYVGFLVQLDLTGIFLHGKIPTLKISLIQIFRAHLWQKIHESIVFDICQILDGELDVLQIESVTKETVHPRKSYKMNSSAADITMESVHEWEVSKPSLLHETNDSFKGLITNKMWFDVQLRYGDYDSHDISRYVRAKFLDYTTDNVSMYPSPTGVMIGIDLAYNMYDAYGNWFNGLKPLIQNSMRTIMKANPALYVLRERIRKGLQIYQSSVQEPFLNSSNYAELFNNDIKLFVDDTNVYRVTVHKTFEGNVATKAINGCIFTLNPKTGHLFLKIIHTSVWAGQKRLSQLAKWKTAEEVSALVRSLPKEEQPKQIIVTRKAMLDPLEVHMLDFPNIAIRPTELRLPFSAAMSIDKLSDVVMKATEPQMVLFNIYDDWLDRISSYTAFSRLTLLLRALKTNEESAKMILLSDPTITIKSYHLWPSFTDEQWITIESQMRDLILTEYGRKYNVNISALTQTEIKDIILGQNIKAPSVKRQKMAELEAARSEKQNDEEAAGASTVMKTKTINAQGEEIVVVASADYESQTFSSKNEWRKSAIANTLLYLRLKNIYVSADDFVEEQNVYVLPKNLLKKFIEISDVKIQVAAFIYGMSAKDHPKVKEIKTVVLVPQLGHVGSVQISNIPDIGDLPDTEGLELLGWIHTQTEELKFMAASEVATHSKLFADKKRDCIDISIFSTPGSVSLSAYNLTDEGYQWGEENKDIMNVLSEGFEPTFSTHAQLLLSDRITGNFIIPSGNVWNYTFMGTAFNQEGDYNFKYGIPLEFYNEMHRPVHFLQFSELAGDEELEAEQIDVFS

B1: Prp18 (protein, UniProt P33411 1-251)
chain: MDLDLASILKGEISKKKKELANSKGVQPPCTEKFQPHESANIDETPRQVEQESTDEENLSDNQSDDIRTTISKLENRPERIQEAIAQDKTISVIIDPSQIGSTEGKPLLSMKCNLYIHEILSRWKASLEAYHPELFLDTKKALFPLLLQLRRNQLAPDLLISLATVLYHLQQPKEINLAVQSYMKLSIGNVAWPIGVTSVGIHARSAHSKIQGGRNAANIMIDERTRLWITSIKRLITFEEWYTSNHDSLA
B2: Prp46 (protein, UniProt Q12417 1-451)
chain: MDGNDHKVENLGDVDKFYSRIRWNNQFSYMATLPPHLQSEMEGQKSLLMRYDTYRKESSSFSGEGKKVTLQHVPTDFSEASQAVISKKDHDTHASAFVNKIFQPEVAEELIVNRYEKLLSQRPEWHAPWKLSRVINGHLGWVRCVAIDPVDNEWFITGSNDTTMKVWDLATGKLKTTLAGHVMTVRDVAVSDRHPYLFSVSEDKTVKCWDLEKNQIIRDYYGHLSGVRTVSIHPTLDLIATAGRDSVIKLWDMRTRIPVITLVGHKGPINQVQCTPVDPQVVSSSTDATVRLWDVVAGKTMKVLTHHKRSVRATALHPKEFSVASACTDDIRSWGLAEGSLLTNFESEKTGIINTLSINQDDVLFAGGDNGVLSFYDYKSGHKYQSLATREMVGSLEGERSVLCSTFDKTGLRLITGEADKSIKIWKQDETATKESEPGLAWNPNLSAKRF
B3: Isy1 (protein, UniProt P21374 1-235)
chain: MSRNVDKANSVLVRFQEQQAESAGGYKDYSRYQRPRNVSKVKSIKEANEWKRQVSKEIKQKSTRIYDPSLNEMQIAELNDELNNLFKEWKRWQWHIDHTLMEKKTKRKRLEDSHVLMNSGKLINGKRYFGRALELPEVKEWLKQSQRQNDGGSINTKCIPKDRNDFYYHGKVTAALTEFEANWTSILKAHYNVPVNEDEEEMSRQTQEIHVPTLADMEHWLVQRRKKKLMDELNL
B4: Yju2 (protein, UniProt P28320 1-278)
chain: MSERKAINKYYPPDYNPLEAEKLSRKMAKKLKTMNKSHASIRLMTPFSMRCLECNEYIPKSRKFNGKKELLKEKYLDSIKIYRLTISCPRCANSIAFRTDPGNSDYVMEVGGVRNYVPQKPNDDLNAKTAVESIDETLQRLVREKEMEQNEKMGIKEQADDKMDLLEKRLAKIQQEQEDDEELENLRKKNLEMSQRAEMINRSKHAQQEKAVTTDDLDNLVDQVFDNHRQRTNKPGNNNDEKRTPLFNPTSTKGKIQKKSSVRTNPLGIVIKRGKSLK
B5: Prp19, P32523 1-503 (protein)
chain: MLCAISGKVPRRPVLSPKSRTIFEKSLLEQYVKDTGNDPITNEPLSIEEIVEIVPSAQQASLTESTNSATLKANYSIPNLLTSLQNEWDAIMLENFKLRSTLDSLTKKLSTVMYERDAAKLVAAQLLMEKNEDSKDLPKSSQQAVAITREEFLQGLLQSSRDFVARGKLKAPKWPILKNLELLQAQNYSRNIKTFPYKELNKSMYYDKWVCMCRCEDGALHFTQLKDSKTITTITTPNPRTGGEHPAIISRGPCNRLLLLYPGNQITILDSKTNKVLREIEVDSANEIIYMYGHNEVNTEYFIWADNRGTIGFQSYEDDSQYIVHSAKSDVEYSSGVLHKDSLLLALYSPDGILDVYNLSSPDQASSRFPVDEEAKIKEVKFADNGYWMVVECDQTVVCFDLRKDVGTLAYPTYTIPEFKTGTVTYDIDDSGKNMIAYSNESNSLTIYKFDKKTKNWTKDEESALCLQSDTADFTDMDVVCGDGGIAAILKTNDSFNIVALTP
B6: Ntc20 (protein, UniProt P38302 1-140)
chain: MPSLRDLSLERDQELNQLRARINQLGKTGKEEANDFVGLNISNEPVYDTVIQTGQSSNATNSFVQETIQKTKQKESGQPYIIPQKNEHQRYIDKVCETSDLKAKLAPIMEVLEKKTNEKIKGIIRKRVLQEPDRDNDDSG
B7: Syf2 (protein, UniProt P53277 1-215)
chain: MDFYKLDEKLKELKRKRVDVSIKSRKLADREIQEVSANRKPRVYSMEDVNDADESVGDTESPEKEKAFHYTVQEYDAWERRHPQGKTGQSQRGGISYDQLAKLSYEKTLRNLATQTQNSSKQDSSADEEDNKNVPKKGRIGKVQKDTKTGKITIADDDKLVNKLAVSLQSESKKRYEARKRQMQNAKTLYGVESFINDKNKQFNEKLSRESKGSE
B8: Prp45 (protein, UniProt P28004 1-379)
chain: MFSNRLPPPKHSQGRVSTALSSDRVEPAILTDQIAKNVKLDDFIPKRQSNFELSVPLPTKAEIQECTARTKSYIQRLVNAKLANSNNRASSRYVTETHQAPANLLLNNSHHIEVVSKQMDPLLPRFVGKKARKVVAPTENDEVVPVLHMDGSNDRGEADPNEWKIPAAVSNWKNPNGYTVALERRVGKALDNENNTINDGFMKLSEALENADKKARQEIRSKMELKRLAMEQEMLAKESKLKELSQRARYHNGTPQTGAIVKPKKQTSTVARLKELAYSQGRDVSEKIILGAAKRSEQPDLQYDSRFFTRGANASAKRHEDQVYDNPLFVQQDIESIYKTNYEKLDEAVNVKSEGASGSHGPIQFTKAESDDKSDNYGA

How the values were obtained:
Test in all cases: cryo-EM structure; endogenous S. cerevisiae C/Ci-complex spliceosomes assembled in splicing extract on UBC4 pre-mRNA and affinity purified (buffer K-75, 75 mM KCl); C-complex particles of 6 datasets merged (C and P particles merged for the Prp19 module); focused classification and focused …
[1] = target: Prp8 (S. cerevisiae (endogenous in splicing extract)) (UniProt P33334)
[2] = target: T1, Clf1 (S. cerevisiae (endogenous in splicing extract)) (UniProt Q12309)
T1 sequence: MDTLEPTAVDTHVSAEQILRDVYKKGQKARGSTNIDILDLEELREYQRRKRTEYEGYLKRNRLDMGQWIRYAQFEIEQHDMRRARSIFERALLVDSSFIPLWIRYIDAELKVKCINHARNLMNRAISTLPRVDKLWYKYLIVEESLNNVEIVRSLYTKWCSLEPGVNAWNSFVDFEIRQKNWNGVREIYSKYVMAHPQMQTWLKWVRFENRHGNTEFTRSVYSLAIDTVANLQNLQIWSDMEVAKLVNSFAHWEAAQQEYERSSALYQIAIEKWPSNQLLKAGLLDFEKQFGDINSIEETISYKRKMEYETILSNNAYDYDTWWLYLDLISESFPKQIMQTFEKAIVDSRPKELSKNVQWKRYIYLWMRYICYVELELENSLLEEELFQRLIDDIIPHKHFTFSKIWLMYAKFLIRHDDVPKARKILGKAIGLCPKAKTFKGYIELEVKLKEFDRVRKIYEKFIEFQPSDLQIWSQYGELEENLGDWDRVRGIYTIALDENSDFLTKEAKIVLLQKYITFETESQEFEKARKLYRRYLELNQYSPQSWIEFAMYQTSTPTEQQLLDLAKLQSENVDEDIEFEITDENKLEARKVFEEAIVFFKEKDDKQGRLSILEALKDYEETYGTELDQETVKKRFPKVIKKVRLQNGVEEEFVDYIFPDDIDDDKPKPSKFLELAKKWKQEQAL

[3] = target: T2, Syf1 (S. cerevisiae (endogenous in splicing extract)) (UniProt Q04048)
T2 sequence: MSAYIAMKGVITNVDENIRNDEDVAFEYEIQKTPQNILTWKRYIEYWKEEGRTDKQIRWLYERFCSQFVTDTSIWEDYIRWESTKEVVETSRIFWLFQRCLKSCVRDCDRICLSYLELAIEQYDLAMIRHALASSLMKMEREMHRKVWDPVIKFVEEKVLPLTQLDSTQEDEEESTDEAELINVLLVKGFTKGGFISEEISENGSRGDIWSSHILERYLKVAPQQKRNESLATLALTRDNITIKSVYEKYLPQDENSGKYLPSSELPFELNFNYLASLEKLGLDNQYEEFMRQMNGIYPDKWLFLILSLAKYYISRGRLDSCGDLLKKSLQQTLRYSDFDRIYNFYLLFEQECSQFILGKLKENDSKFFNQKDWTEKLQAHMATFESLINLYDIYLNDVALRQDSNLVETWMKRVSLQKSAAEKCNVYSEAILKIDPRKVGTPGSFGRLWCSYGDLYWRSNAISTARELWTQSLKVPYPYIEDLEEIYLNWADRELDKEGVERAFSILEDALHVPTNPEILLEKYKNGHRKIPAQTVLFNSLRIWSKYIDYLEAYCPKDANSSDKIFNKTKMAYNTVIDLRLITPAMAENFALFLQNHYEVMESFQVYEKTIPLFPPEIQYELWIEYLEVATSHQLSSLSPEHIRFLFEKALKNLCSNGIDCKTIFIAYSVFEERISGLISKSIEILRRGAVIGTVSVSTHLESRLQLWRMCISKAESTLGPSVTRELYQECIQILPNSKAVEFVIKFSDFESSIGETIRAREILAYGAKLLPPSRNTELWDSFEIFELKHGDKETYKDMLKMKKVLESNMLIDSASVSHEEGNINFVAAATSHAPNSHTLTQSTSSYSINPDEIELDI

[4] = target: T3, Lea1 (S. cerevisiae (endogenous in splicing extract)) (UniProt Q08963)
T3 sequence: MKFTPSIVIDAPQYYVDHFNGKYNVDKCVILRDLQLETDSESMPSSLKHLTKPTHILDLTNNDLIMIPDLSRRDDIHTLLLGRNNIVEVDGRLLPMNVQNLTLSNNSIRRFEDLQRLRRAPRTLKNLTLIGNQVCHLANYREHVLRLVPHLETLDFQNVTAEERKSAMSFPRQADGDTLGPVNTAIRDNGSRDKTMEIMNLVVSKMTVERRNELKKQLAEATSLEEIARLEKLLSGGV

[5] = target: T4, Cwc25 (S. cerevisiae (endogenous in splicing extract)) (UniProt P53854)
T4 sequence: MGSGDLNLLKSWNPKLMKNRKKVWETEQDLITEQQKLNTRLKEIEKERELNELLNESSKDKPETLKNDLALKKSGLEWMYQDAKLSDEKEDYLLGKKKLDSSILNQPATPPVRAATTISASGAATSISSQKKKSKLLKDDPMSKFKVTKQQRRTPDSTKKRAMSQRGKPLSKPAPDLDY

[6] = target: T5, Prp19 (S. cerevisiae (endogenous in splicing extract)), P32523; details: remark: other sources report otherwise
T5 chain: B5 chain

| Binder | binding [2] | binding [3] | other results |
| --- | --- | --- | --- |
| B1 |  |  | binding [1]: binds weakly |
| B2 | binds |  |  |
| B3 |  | binds | binding [4]: binds |
| B4 |  | binds | binding [5]: binds |
| B5 |  |  | binding [6]: binds |
| B6 | binds | binds |  |
| B7 |  | binds |  |
| B8 | binds |  |  |
